Experimental data: PubChem BioAssay AID2685 (National Center for Advancing Translational Sciences (NCATS), 2010)
The other results are listed elsewhere or left out. These are further read-outs of the screen, such as a control signal, another cell line or another target. No call is given for them. Compounds called inactive in the main read-out are mostly missing here. Words in brackets tell the shape of the fitted curve; partial curves, single points and poor fits give uncertain potencies.

Assay: qHTS Assay for Lipid Storage Modulators in Drosophila S3 Cells;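 as to cell number change: cells counted by Cell Tracker Red CMTPX staining in the red channel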
Conditions: BODIPY lipid droplet fluorescence, 18-24 h; for cell number change: measured here: cell count max response, cells fed with added oleic acid
Method in brief: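 Laser-scanning cytometry quantifies lipid droplet accumulation (500–530 nm total intensity; droplet/cell object ratio) in oleic acid-fed (400 uM added) Drosophila S3 cells treated with a concentration series. 20 uM Triacsin C defined 100% inhibition.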

[1] = measured here: lipid fluorescence (Fed channel) AC50, cells fed with added oleic acid
[2] = measured here: cell number channel AC50, cells fed with added oleic acid

O=C1C/C(=C/NCc2ccccc2)C(=O)N1
cell number change: -8.53%

COc1ccc(Oc2ccc(N/C=C3/CCCC3=O)cc2)cc1
cell number change: 8.67% | AC50 [1]: 1.46 µM [rising, full curve, poor fit]

CCOc1ccc(NCc2cccn2-c2nnc(N3CCC(C(=O)NCCCN4CC(C)CC(C)C4)CC3)s2)cc1 (stereo not drawn)
cell number change: 12.2% | AC50 [1]: 0.58 µM [rising, single point]

CCOc1ccc(C(=O)c2ccccc2C(=O)O)cc1OCC
cell number change: 14.9%

CN(C)CC(C)(C)CNCc1cc(=O)oc2ccc3ccccc3c12
cell number change: 9.68% | AC50 [1]: 6.51 µM [rising, single point]

COc1cccc(C(=O)Nc2cccc(-c3ccc(N4CCOCC4)nn3)c2)c1
cell number change: -1.5%

CCOC(=O)N1CCC(N2C(=O)c3ccc(C(=O)Nc4cccc(OC)c4)cc3C2=O)CC1
cell number change: 128% | AC50 [2]: 29.1 µM [rising, single point] | AC50 [1]: 29.1 µM [falling, single point]

O=S(=O)(c1ccc(Oc2ccc(S(=O)(=O)N3CCOCC3)cc2)cc1)N1CCOCC1
cell number change: 2.64% | AC50 [1]: 0.13 µM [falling, full curve, poor fit]

C=CCN(C(=O)c1csnn1)C(C(=O)NC1CCCCC1)c1ccc(Cl)cc1 (stereo not drawn)
cell number change: 3.81% | AC50 [2]: 0.517 µM [rising, single point]

CN1CCN(S(=O)(=O)c2cccc(C(=O)Nc3ccccc3N3CCOCC3)c2)CC1
AC50 [1]: 0.00461 µM [falling, full curve, poor fit]

N#CCCN(C(=O)c1ccc2c(=O)n3c(nc2c1)CCCCC3)c1ccccc1
cell number change: -1.32% | AC50 [1]: 2.06 µM [falling, full curve]

CCS(=O)(=O)N1CCC(C(=O)Nc2cc(C)ccc2O)CC1
cell number change: 11.1% | AC50 [1]: 6.51 µM [rising, single point]

Cc1ccc2nnnc(-c3ccccc3)c2c1
cell number change: 5.28% | AC50 [2]: 4.11 µM [rising, single point] | AC50 [1]: 8.2 µM [rising, partial curve]

Cc1cc(C(=O)OCC(=O)Nc2cc(C)on2)c2ccccc2n1
cell number change: 11.8% | AC50 [1]: 0.651 µM [rising, single point]

COC(=O)[C@]1(C)N[C@H](c2ccc(-c3ccc(F)cc3)cc2)[C@@H]2C(=O)N(C)C(=O)[C@@H]21
cell number change: 12.4% | AC50 [1]: 16.4 µM [rising, single point]

COc1ccccc1Nc1nc(N)nc(CN(C)C2CCCCC2)n1
cell number change: 8.7% | AC50 [1]: 10.3 µM [rising, partial curve, poor fit]

O=C(NCC1CCN(Cc2ccccc2F)CC1)Nc1ccccc1F
cell number change: 12.5% | AC50 [1]: 29.1 µM [falling, single point]

COc1ccc(CCNC(=O)c2ccc3c(c2)N(Cc2ccccc2)CCS3)cc1OC
cell number change: -46.6% | AC50 [2]: 8.2 µM [falling, partial curve] | AC50 [1]: 2.06 µM [falling, full curve]

CC(C)C1CC(O)(C2(O)CCCCC2)ON1 (stereo not drawn)
cell number change: -34.7% | AC50 [2]: 0.92 µM [falling, full curve, poor fit] | AC50 [1]: 8.2 µM [falling, partial curve]

COc1ccc(-c2nc3c(n2O)CCCC3=O)cc1OC
cell number change: -4.63% | AC50 [1]: 6.51 µM [falling, single point]

Cc1ccc(C2C3CSCC=C3C(C#N)=C(N)C2(C#N)C#N)cc1 (stereo not drawn)
AC50 [1]: 0.13 µM [rising, full curve, poor fit]

C=CCC(COCc1ccccc1)NS(=O)(=O)c1ccccc1Br (stereo not drawn)
cell number change: 21.2% | AC50 [1]: 4.11 µM [rising, full curve, poor fit]

Cc1ccc(-c2nnc(NC(=O)c3c(F)cccc3Cl)s2)cc1
cell number change: 11%

Cc1ccc(-c2nn(-c3ccccc3)cc2C(=O)NC2CCC(O)CC2)cc1 (stereo not drawn)
cell number change: 11.6% | AC50 [2]: 1.64 µM [falling, partial curve] | AC50 [1]: 0.13 µM [falling, full curve, poor fit]

Cc1ccc(N2C(=O)C(Cl)=C(N3CCOCC3)C2=O)cc1Cl
cell number change: 3.3% | AC50 [2]: 0.731 µM [rising, single point]

Cc1cc(C(=O)COC(=O)Cn2c(C(F)(F)F)nc3ccccc32)c(C)n1Cc1ccco1
cell number change: 1.76% | AC50 [1]: 0.0731 µM [rising, full curve, poor fit]

COc1ccc(S(=O)(=O)Nc2cccnc2)cc1
cell number change: 22.4% | AC50 [1]: 7.31 µM [rising, partial curve]

O=C(Cc1cccs1)Nc1nc(-c2ccccc2)cs1
cell number change: 78.2% | AC50 [2]: 8.2 µM [rising, partial curve] | AC50 [1]: 6.51 µM [rising, partial curve, poor fit]

Cc1cc(C)n2cc(COc3ccccc3)nc2n1
cell number change: 21.7% | AC50 [1]: 5.8 µM [rising, full curve]

CCc1nc(C)cn1S(=O)(=O)c1ccc(Cl)c(Cl)c1Cl
AC50 [2]: 5.17 µM [rising, single point]

Fc1ccc(-c2ccnc3nc(-n4cccc4)nn23)cc1
cell number change: 4.44%

COc1cc(C2C(C#N)=C(N)Oc3c2ccc2ccccc32)ccc1OCC(=O)Nc1cccc(C)c1 (stereo not drawn)
cell number change: 16.7% | AC50 [1]: 4.11 µM [rising, single point]

COC(=O)c1c[nH]n2c(=O)c(C(C)C)c(C)nc12
AC50 [2]: 4.11 µM [falling, single point] | AC50 [1]: 6.51 µM [falling, single point]

FC(F)Sc1ccc(NC(=S)NC(c2ccccc2)c2ccccc2)cc1
cell number change: -31.8% | AC50 [2]: 5.17 µM [falling, full curve, poor fit] | AC50 [1]: 5.8 µM [falling, full curve]

CC1(c2ccccc2Cl)NC(=O)N(CC(=O)N2c3ccccc3NC(=O)C2(C)C)C1=O (stereo not drawn)
cell number change: 18.4% | AC50 [1]: 6.51 µM [rising, full curve, poor fit]

COC(=O)c1ccccc1S(=O)(=O)N(Cc1cc2ccc(OC)cc2[nH]c1=O)CC1CCCO1 (stereo not drawn)
cell number change: -6.78% | AC50 [1]: 2.31 µM [rising, full curve]

O=C(CCC1COc2ccccc2O1)NC1CCCCC1 (stereo not drawn)
AC50 [2]: 0.651 µM [rising, full curve]

Cc1ccc(N(CC(=O)NCc2ccc(F)cc2)C(=O)c2ccco2)cc1C
cell number change: -1.9%

CCOc1ccccc1NC(=O)COC(=O)c1c(CC)noc1C
AC50 [2]: 2.91 µM [falling, partial curve] | AC50 [1]: 1.84 µM [falling, partial curve]

CC(C)(C)NC(=O)NC(=O)COC(=O)Cc1c(F)cccc1Cl
cell number change: -28.5%

COc1ccc(OC)c(C2/C(=C(/O)c3cnn(-c4ccccc4)c3C)C(=O)C(=O)N2CCN(C)C)c1 (stereo not drawn)
cell number change: -26.5% | AC50 [1]: 0.0366 µM [rising, full curve, poor fit]

CCOc1ccc(-n2ccnc2SCC(=O)Nc2nnc(CC)s2)cc1
cell number change: -16.5% | AC50 [1]: 0.58 µM [falling, full curve, poor fit]

COCCNC(=O)CN(Cc1ccccc1)C(=O)CCC(=O)Nc1nccs1
cell number change: 4.7%

CCC(=O)c1ccc(OCC(=O)Nc2nc(-c3cccnc3)cs2)cc1
cell number change: -11.2%

CCCCc1nnc(NC(=O)c2cccc(S(=O)(=O)N3CCN(C)CC3)c2)s1
cell number change: -12.6% | AC50 [2]: 0.058 µM [falling, full curve, poor fit]

O=S(=O)(c1ccccc1)c1nc(NCc2ccccc2)sc1Cl
cell number change: 19.9% | AC50 [2]: 1.84 µM [falling, partial curve, poor fit]

COc1cc(-c2ccc3sc(-c4ccsc4)c(C#CCO)c3c2)cc(OC)c1OC
AC50 [2]: 1.16 µM [falling, single point] | AC50 [1]: 0.116 µM [falling, full curve, poor fit]

Cc1ccc(S(=O)(=O)Nc2nnc(C3CCCCC3)s2)cc1
AC50 [2]: 1.03 µM [falling, partial curve] | AC50 [1]: 6.51 µM [falling, single point]

O=C(O)CCCN1C(=O)c2ccccc2Sc2ncccc21
cell number change: -6.31%

COc1ccccc1C(=O)Nc1ccc(OCc2nnc3c4ccccc4c(C)nn23)cc1
cell number change: -62.1% | AC50 [2]: 29.1 µM [falling, single point] | AC50 [1]: 0.116 µM [rising, full curve, poor fit]

COc1ccccc1CNC(=O)c1c(N)n(CCCN2CCOCC2)c2nc3ccccc3nc12
cell number change: -29.9% | AC50 [1]: 20.6 µM [falling, single point]

O=C(c1ccc2c(=O)n3c(nc2c1)CCC3)N1CCCSC1=Nc1ccccc1
cell number change: -18.2%

O=C(c1ccc2c(=O)n3c(nc2c1)CCCCC3)N1CCN(c2ccc([N+](=O)[O-])cc2)CC1
cell number change: 7.22% | AC50 [2]: 2.59 µM [rising, partial curve, poor fit] | AC50 [1]: 1.84 µM [rising, partial curve]

CC(C)Oc1ccc(C2CC(=O)N(c3cccc(C(=O)O)c3)C2=O)cc1 (stereo not drawn)
cell number change: 6.95% | AC50 [1]: 2.06 µM [falling, full curve]

O=C(COc1cc2oc(=O)c3c(c2cc1Cl)CCC3)NCc1ccccn1
cell number change: 7.25% | AC50 [2]: 0.0146 µM [falling, full curve, poor fit] | AC50 [1]: 0.231 µM [falling, full curve, poor fit]

O=C(O)CNC(=O)c1ccc(NC(=O)/C(=C/c2cccc([N+](=O)[O-])c2)NC(=O)c2ccco2)cc1
cell number change: -9.12% | AC50 [1]: 0.731 µM [rising, full curve, poor fit]

N#CC1=C(S)N(c2ccc(F)cc2)C(c2cccs2)NC1=O (stereo not drawn)
cell number change: -19.4% | AC50 [2]: 3.66 µM [falling, single point] | AC50 [1]: 0.00517 µM [falling, full curve, poor fit]

CC(=O)N/N=C(\C)c1ccc2c(c1)OCCO2
cell number change: 13.1% | AC50 [2]: 0.0651 µM [rising, full curve, poor fit] | AC50 [1]: 3.66 µM [rising, full curve, poor fit]
